Assay results published in article PMC8266576, “TnpAREP and REP sequences dissemination in bacterial genomes: REP recognition determinants”.
The exact form of at least one protein or probe is not confirmed. Weaker means in comparison with the reference protein, sequence or condition of that experiment. Tags and fusion partners may be left off the protein sequences shown. At least one verdict was read from the data and is not stated in words by the source.

Molecular target: T1, TnpAREP Ec (TnpAEc-His6) (Escherichia coli) (UniProt Q47152)
T1 sequence (looked up, limits assumed): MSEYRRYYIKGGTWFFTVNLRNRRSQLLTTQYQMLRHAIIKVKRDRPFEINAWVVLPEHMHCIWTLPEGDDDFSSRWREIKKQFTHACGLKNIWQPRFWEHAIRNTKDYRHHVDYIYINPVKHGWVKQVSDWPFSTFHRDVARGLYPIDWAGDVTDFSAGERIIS
Experiment: EMSA
Conditions: no divalent metal, EMSA: 12.5 mM Tris pH 7.5, 120 mM NaCl, 1 mM DTT, 20 ug/ml BSA, 0.5 ug poly-dIdC, 7% glycerol, 0.02 uM labelled + 0.5 uM unlabelled oligonucleotide, recombinant protein, protein details: His6 (C-terminal by name), label: 5'-32P, folded or branched DNA

## GTAGGACGGAAAAGGCGTTTACGCCGCTTCCGGCAGTTGTACGCAGGTGCCTGATGCGACG [F268 T11A]
2 and 4 uM protein
  binding result: binds more weakly

## GTAGGACGGATAACCGCTAAAGCGGGCATCCGGCAGTTGTACGCAGGTGCCTGATGCGACG [B2680 mut upper stem (complement of upper stem)]
  binding result: binds

## GTAGGAGGGATAAGGCGTTTACGCCGCATCCCGCAGTTGTACGCAGGTGCCTGATGCGACG [E268 G32C]
2 and 4 uM protein
  binding result: binds more weakly
